Screen size: about 400,000 compounds; about 5,500 (1.4%) were called active. The inconclusive results got no clear call from the source; some entries with a clear call stand among them for comparison. Calls follow the shape of the dose curve; as a rule, active = well fitted cell-killing curve with a large enough effect; inconclusive = small, poorly fitted or top-dose-only effect, or effect the other way; inactive = flat fitted curve, though single readings scatter. Potencies of inconclusive entries are doubtful fits and often do not repeat.
Assay: qHTS assay for MDR1-selective chemotherapeutics: Primary screen using the parental adenocarcinoma cell KB-3-1; also: nearly all actives have a fitted effect of over 60% in size
Settings: KB-3-1 viability, CellTiter-Glo ATP luminescence, 72 h; activity change, negative = cytotoxic: at 46.1 µM (top of the series)
Procedure, shortened: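 72 h, 37 °C compound treatment of KB-3-1 parental cells; CellTiter-Glo added, 10 min, luminescence read. Data corrected against DMSO-only plates and normalized before curve fitting.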
% is scaled to controls: 0 for no effect and ±100 for the full control effect; potency is read from the fitted curve at half-maximal effect.

SMILES | Potency | activity change, negative = cytotoxic
Nc1nc(Cl)cc(N2CCC(c3cc(-c4ccc(Cl)cc4)n[nH]3)CC2)n1 | inconclusive: 23.1 µM [cytotoxic, partial curve, poor fit] | –
CCCCCCSc1ccc([C@@H]2[C@@H]3C(=O)N(CC)C(=O)[C@@H]3[C@]3(C(=O)OC)CCCCN23)cc1 | inconclusive: 18.4 µM [cytotoxic, single point] | –
CCn1cc(C(=O)NCCc2ccc(Cl)cc2)c(=O)c2cc(S(=O)(=O)N3CCc4ccccc4C3)ccc21 | – | inactive: 28.3%
C[C@H](NC(=O)c1nc[nH]c1C(=O)NC(c1ccccc1)c1ccccc1)C(=O)OC(C)(C)C | inconclusive: 29.1 µM [cytotoxic, single point] | –
C/C(=N\Nc1ncnc2sc(C)c(C)c12)c1ccccn1 | inconclusive: 4.61 µM [cytotoxic, partial curve, poor fit] | –
CCOc1ccc(NC(=O)c2ccc(F)c(S(=O)(=O)N3CCCC3)c2)cc1 | inconclusive: 13 µM [cytotoxic, partial curve] | –
COc1cc(C2C(C#N)=C(N)Oc3cc(O)ccc32)cc2c1OCO2 (stereo not given) | inconclusive: 29.1 µM [cytotoxic, single point] | –
N#Cc1c(N)nc(SCc2ccccc2)c(C#N)c1-c1ccco1 | inconclusive: 23.1 µM [rising, single point] | –
COc1ccc(-c2noc(Cn3c(=O)c4ccccc4n(CC(=O)Nc4cccc(C(F)(F)F)c4)c3=O)n2)cc1 | inconclusive: 18.4 µM [cytotoxic, single point] | –
Cc1ccc(S(=O)(=O)NC(CC(=O)OCc2ccccc2)C(=O)OCc2ccccc2)cc1 (stereo not given) | inconclusive: 23.1 µM [rising, partial curve] | –
CC(=O)c1cccc(NC(=O)Nc2cnn(Cc3ccc(Cl)cc3Cl)c2)c1 | inconclusive: 29.1 µM [cytotoxic, single point] | –
O=S(=O)(Nc1cccc(-c2ccc(N3CCCCCC3)nn2)c1)c1ccccc1 | inconclusive: 29.1 µM [cytotoxic, single point] | –
COc1ccc(C(CNC(=O)c2cc(SC)ccc2Cl)N(C)C)cc1 (stereo not given) | – | inactive: -53.1%
O=C(N/N=C/c1ccccc1O)C(=O)N1CCCCCC1 | inconclusive: 25.9 µM [cytotoxic, single point] | –
O=C(Nc1ccon1)c1cccc(S(=O)(=O)N2CCCCC2)c1 | inconclusive: 13 µM [cytotoxic, single point] | –
CCc1ccc(C2CC(c3cccc(OC)c3)n3nc(N)nc3N2)cc1 (stereo not given) | – | inactive: 21.5%
CC(C)c1ccc(NC(=O)Nc2nc(C(N)COCc3ccccc3)cs2)cc1 (stereo not given) | inconclusive: 29.1 µM [cytotoxic, single point] | –
O=C(c1ccc(Cl)c(Cl)c1)N1CCC(=O)N([C@H](COCc2ccc(Cl)cc2)Cc2ccccc2)CC1 | inconclusive: 29.1 µM [cytotoxic, single point] | –
CCC(=O)N/C(N)=N/c1nc(C)c2cc(OC)ccc2n1 | inconclusive: 18.4 µM [cytotoxic, single point] | –
O=C(O)CCCCNCc1ccccc1 | – | inactive: 2.41%
O=C(Cn1c(=O)n(-c2ccc(F)cc2)c(=O)c2sc3ccccc3c21)NC1CCCCC1 | – | inactive: -2.15%
CCCCNc1ccc2c3c(cccc13)C(=O)N(CCCC)C2=O | – | inactive: -11.4%
CCOc1ccc(-c2cc(C(=O)OC)nc3c2c(=O)n(C)c(=O)n3C)cc1 | – | inactive: 13.3%

Quoted from the listing:
Entry of O=C(N/N=C/c1ccccc1O)C(=O)N1CCCCCC1 under Potency: inconclusive: 25.9 µM [cytotoxic, single point]
Entry of N#Cc1c(N)nc(SCc2ccccc2)c(C#N)c1-c1ccco1 under Potency: inconclusive: 23.1 µM [rising, single point]
Entry of CCCCNc1ccc2c3c(cccc13)C(=O)N(CCCC)C2=O under activity change, negative = cytotoxic: inactive: -11.4%

The listing continues:

SMILES | Potency | activity change, negative = cytotoxic
COc1ccc(N(C(=O)c2ccc(Br)o2)C2C=CS(=O)(=O)C2)c(OC)c1 (stereo not given) | – | inactive: 1.25%
CC(=O)Nc1cccc(C(=O)Nc2ccc(S(=O)(=O)NC3=NCCCCC3)cc2)c1 | inconclusive: 18.4 µM [rising, partial curve, poor fit] | –
Cc1ccc(CNC(=O)CCC(=O)N2Cc3ccccc3Oc3ncccc32)cc1 | – | inactive: -0.423%
CCc1ccc(Nc2nnc(SCC(=O)N(C)C3CCS(=O)(=O)C3)s2)cc1 (stereo not given) | inconclusive: 29.1 µM [rising, single point] | –
CC1CCc2cc(F)cc3c(O)c(C(=O)NCC4CCCO4)c(=O)n1c23 (stereo not given) | – | inactive: -29%
CCOC(=O)CSc1nc2sc3c(c2c(=O)n1-c1ccc(OC)cc1)CCN(C)C3 | inconclusive: 29.1 µM [rising, single point] | –
CCc1ccc(/C=N/NC(=O)c2cc(-c3ccncc3)nc3ccccc23)s1 | active: 4.61 µM | –
CCc1nnc(NC(=O)C2Cc3ccccc3CN2S(=O)(=O)CC)s1 (stereo not given) | – | inactive: 1.7%
COc1cccc(NS(=O)(=O)c2ccc3c(c2)CCN3C(C)=O)c1 | inconclusive: 3.26 µM [cytotoxic, full curve, poor fit] | –
CCOc1ccccc1NC(=O)NC1(C(=O)NCc2cccnc2)CCCCC1 | inconclusive: 23.1 µM [rising, single point] | –
O=C(CCl)N(Cc1cccc([N+](=O)[O-])c1)c1cccc(Cl)c1 | inconclusive: 29.1 µM [cytotoxic, single point] | –
CCOc1ccc(NC(=O)C2CCCN(c3nc(C)cc(C)n3)C2)cc1 (stereo not given) | inconclusive: 29.1 µM [rising, single point] | –
OC(c1ccccc1)c1nc(-c2cccc(C(F)(F)F)c2)cs1 (stereo not given) | – | inactive: 0%
COc1cccc(NC(=O)CN(C)C(=O)C2=COCCO2)c1 | – | inactive: 12.4%
CCCCCCNC(=O)CNC(=S)N(Cc1cccs1)C1CCCCC1 | inconclusive: 29.1 µM [cytotoxic, single point] | –
Cc1cc(C(=O)CSc2nc3ccccc3c(=O)[nH]2)c(C)n1CC1CCCO1 (stereo not given) | inconclusive: 2.06 µM [cytotoxic, full curve, poor fit] | –
Cc1ccc(S(=O)(=O)C2(S(=O)(=O)c3ccc(C)cc3)CCCC2)cc1 | active: 6.51 µM | –
O=C(N/N=C/c1cccc(Br)c1)c1ccc(Cn2cc(Br)cn2)o1 | – | inactive: -1.6%
Cc1ccc(NC(=O)CN(C)C(=O)COC(=O)c2oc3ccccc3c2C)cc1 | – | inactive: -0.987%
CN(C)c1ccc(C2=Cc3ccccc3C2)cc1 | inconclusive: 29.1 µM [cytotoxic, single point] | –
CC(C)C1/C(=N/O)CC(c2ccccc2)NC1c1ccccc1 (stereo not given) | – | inactive: 1.03%
CCOC(=O)c1cc(-c2ccccc2)sc1NC(=O)C(C)Sc1nnc(N)s1 (stereo not given) | inconclusive: 18.4 µM [cytotoxic, single point] | –

Source: PubChem BioAssay AID1347075 (National Center for Advancing Translational Sciences (NCATS), 2019)
